## Microarray screen: hit calls

Calls as published in the ROBIN set (doi:10.1002/anie.202211358).

Oligonucleotides screened, 5′ to 3′:
TPP: TPP riboswitch RNA three-way junction, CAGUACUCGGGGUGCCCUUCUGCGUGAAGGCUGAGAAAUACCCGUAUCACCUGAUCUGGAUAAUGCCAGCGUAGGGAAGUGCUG. About 160 hits among about 24,000 compounds.
PreQ1: PreQ1 riboswitch RNA pseudoknot, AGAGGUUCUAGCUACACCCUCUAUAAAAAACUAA. From B. subtilis. About 170 hits among about 24,000 compounds.
SAM-II: SAM-II riboswitch RNA pseudoknot, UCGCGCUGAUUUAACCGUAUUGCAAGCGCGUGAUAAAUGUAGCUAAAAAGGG. About 200 hits among about 21,000 compounds.

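Compounds were printed on reactive glass slides in duplicate spots, a dye-labelled oligonucleotide was laid over them, and the fluorescence left after washing was read. For the PreQ1, TPP and SAM-II riboswitches the laboratory earlier reported (doi:10.1038/s41467-019-09493-3) 1 µM RNA, 2 h, and a rule that included a mean Z-score above 3 (spot signal-to-noise against the whole library), a score well above that on a control array, and duplicate spots agreeing (coefficient of variation under 100). The data file gives only the calls; its cut-offs may differ, and compounds hitting several targets are kept. The calls come from the array alone, and fixing a compound to the slide can hide its binding.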 A compound is marked yes if it was called a hit and no if it was screened but was not. This is an unselected part of the compounds tested. A dash means that no call is listed here.

| # | SMILES | TPP | PreQ1 | SAM-II |
|---|---|---|---|---|
| 1 | `Cc1nnc2sc(-c3ccc(N)cc3)nn12` | no | no | no |
| 2 | `O=C1CCCN1c1ccc(CNC2CCC3(CCNCC3)CC2)cc1` | no | no | no |
| 3 | `CCCN1C(=O)C2(c3ccccc31)c1c(oc3ccc(C)cc3c1=O)C(=O)N2CCO` (stereo not shown) | no | no | - |
| 4 | `Cc1nn(-c2ccc(C(=O)O)cc2)c(N)c1-c1ccccc1` | no | no | no |
| 5 | `Cc1cccc(C(C(=O)N2C[C@H]3CC[C@@H](C2)N3)N(C)C)c1` (stereo partly shown) | no | no | no |
| 6 | `Cc1cc(Nc2cccc(O)c2)c2cccc(Cl)c2n1` | no | no | no |
| 7 | `Cc1cc2ccccc2n1CCC(=O)N1CCC2(CC1)OCCCC2O` (stereo not shown) | no | no | no |
| 8 | `CCOc1ccc([C@@H]2C[C@H](c3ccc(CC)cc3)n3nc(N)nc3N2)cc1` | no | no | no |
| 9 | `CCc1nc(N)nc(N)c1-c1ccc(N(C)Cc2ccccc2)c([N+](=O)[O-])c1` | no | no | no |
| 10 | `O=S(=O)(c1ccc(Cl)cc1)c1nc(-c2ccco2)oc1NCCN1CCOCC1` | no | no | - |
| 11 | `COc1ccc(-c2nc3ccccn3c2NCc2ccccc2)cc1` | no | no | no |
| 12 | `Cc1nc(-c2ccc(CNc3nc(N)nc4c3CCNCC4)cc2)no1` | no | no | no |
| 13 | `COC(=O)c1cc(C)c(C)cc1NC1OC(CO)C(O)C1O` (stereo not shown) | no | no | no |
| 14 | `COc1ccccc1Nc1nc(C2(C)CC3(CC(C)OC3=O)C(=O)O2)cs1` (stereo not shown) | no | no | no |
| 15 | `Cc1cc(C(=O)N2CC[C@@H](c3ccc4c(c3)OCO4)[C@H](O)C2)cc(=O)[nH]1` | no | no | no |
| 16 | `N#CC1=C(N)OC2=C(C(=O)CCC2)C1c1ccc(F)cc1F` (stereo not shown) | no | no | no |
| 17 | `CCCn1cnc2cc(NCc3ccccc3OCC)ccc21` | no | no | no |
| 18 | `CCOc1ccc(CCNC2=NS(=O)(=O)C(c3ccc(OC)cc3)=C2C)cc1` | no | no | - |
| 19 | `CC(=O)N1C(=O)C2(NCC(C)N2)c2ccccc21` (stereo not shown) | no | no | no |
| 20 | `CCC(O)Cn1ncnc1-c1cnccc1C` (stereo not shown) | no | no | no |
| 21 | `Cc1cc(Nc2cccc(C(=O)N3CCCCC3C)c2)n2nc(-c3cccnc3)nc2n1` (stereo not shown) | no | no | - |
| 22 | `CN(C)C[C@H]1C[C@H](CO)CN(C(=O)c2cccc(N3CCCC3=O)c2)C1` | no | no | no |
| 23 | `C[C@@H]1CN(c2c(F)c(N)c3c(=O)c(C(=O)O)cn(C4CC4)c3c2F)C[C@H](C)N1` | no | no | no |
| 24 | `Cc1ccc(C2C(C#N)=C(N)N(c3cccnc3)C3=C2C(=O)CC(C)(C)C3)c(C)c1` (stereo not shown) | no | no | no |
| 25 | `COc1cc(NC(=S)NCC(O)c2ccccc2)cc(OC)c1` (stereo not shown) | no | no | no |
| 26 | `CC(C)Cc1nc2sc3c(NCC(C)O)ncnc3c2c2c1COC(C)(C)C2` (stereo not shown) | no | no | no |
| 27 | `CCOC(=O)[C@H](CCc1ccccc1)N[C@H]1CCc2ccccc2N(CC(=O)O)C1=O` | no | no | no |
| 28 | `CCOc1ccccc1Nc1cc(C)nc2ccc(Cl)cc12` | no | no | no |
| 29 | `Cc1cc(C)c2nc(C)cc(Nc3ccc(N(C)C)cc3)c2c1` | no | no | no |
| 30 | `Cn1c(=O)n(C)c2cc(CNCCc3ccc(Cl)cc3)ccc21` | no | no | - |
| 31 | `COC(=O)N1CCN(c2cc(N)nc(SCc3ccccc3C)n2)CC1` | no | no | no |
| 32 | `CCOc1ccc(OCC)c(NC2=NS(=O)(=O)C(c3ccc(C)cc3)=C2C)c1` | no | no | - |
| 33 | `CC(=O)c1c(Nc2ccc(O)cc2)oc(C)cc1=O` | no | no | no |
| 34 | `N#Cc1nc(-c2ccc(S(=O)(=O)N3CCc4ccccc4C3)cc2)oc1NC1CCCCC1` | no | no | - |
| 35 | `COCCOC(=O)C1=C(N)OC(C)=C(C(=O)c2ccccc2)C12C(=O)Nc1ccccc12` (stereo not shown) | no | no | no |
| 36 | `CCCCC(=O)N1CCCC(C)C1` (stereo not shown) | no | no | no |
| 37 | `CS(=O)(=O)c1cc(F)cc2c3c(n(Cc4ccc(Cl)cc4)c12)[C@H](CC(=O)O)CC3` | no | no | no |
| 38 | `Cl.Cl.OC(COc1ccc2c(c1)CCC2)CN1CCN(Cc2ccc3c(c2)OCO3)CC1` (stereo not shown) | no | no | no |
| 39 | `CCNc1nc(C)cc(N2CCN(S(=O)(=O)c3cccc(C(F)(F)F)c3)CC2)n1` | no | no | - |
| 40 | `CN(C)CC(=O)N1CCN(C(=O)[C@H]2[C@@H]3CNC[C@@H]32)[C@H]2CS(=O)(=O)C[C@H]21` | no | no | no |
| 41 | `Nc1cccc(N2C(=O)C3CCCN3C2=O)c1` (stereo not shown) | no | no | no |
| 42 | `CCc1nccn1CCNC(=O)[C@H]1CNC[C@@H](C(=O)N2CCCC2)C1` | no | no | no |
| 43 | `O=C(Cn1cc(CO)c2ccccc21)Nc1ccccc1` | no | no | no |
| 44 | `COc1ccc(CCNC2=NS(=O)(=O)C(c3ccc(C)c(C)c3)=C2C)cc1OC` | no | no | - |
| 45 | `CCCC1=C(C(=O)OCC)C2(C(=O)Nc3ccccc32)C(C#N)=C(N)O1` (stereo not shown) | no | no | no |
| 46 | `O=C1OC(Nc2ccc(Cl)cc2C(F)(F)F)c2ccccc21` (stereo not shown) | no | no | no |
| 47 | `O=C1CC[C@H]2CN(c3ccc4ccccc4n3)CC[C@H]2N1CCCO` | no | no | no |
| 48 | `CCCC(O)c1nc2ccccc2n1CCC(C)C` (stereo not shown) | no | no | - |
| 49 | `Cc1coc2c1C(=O)C(=O)c1c-2ccc2c(C)cccc12` | no | no | no |
| 50 | `N#Cc1nc(C=Cc2ccc(F)cc2)oc1NCCCN1CCOCC1` | no | no | - |
| 51 | `CCn1c(SCC(N)=O)nnc1C(C)Nc1ccccc1OC` (stereo not shown) | no | no | no |
| 52 | `CSc1nc(NCC(C)C)c(C#N)c(-c2ccccc2)n1` | no | no | - |
| 53 | `Cc1ccc(N2C(=O)c3cccnc3C2Nc2ccc(C)c(Cl)c2)cc1` (stereo not shown) | no | no | - |
| 54 | `CCc1ccc(-n2nc(CO)c(C(=O)NCCOC)n2)cc1` | no | no | - |
| 55 | `CC(C)c1cc(-c2nc(C3(c4ccc(F)cc4)CCOC3)no2)nc(N)n1` (stereo not shown) | no | no | no |
| 56 | `COc1ccc(COc2cc3oc(=O)c4cc(C(C)O)ccc4c3cc2OC)cc1` (stereo not shown) | no | no | no |
| 57 | `Nc1ncnc(Nc2ccc3c(c2)OCO3)n1` | no | no | no |
| 58 | `O=C(c1cc2n(n1)CCNC2)N1C[C@H](O)[C@@H](N2CCCCC2)C1` | no | no | no |
| 59 | `Cc1c(-c2ccccc2)[nH]c2c(CNC(=O)[C@@H](N)Cc3c[nH]cn3)cc(Cl)cc12` | yes | yes | no |
| 60 | `COc1ccc(-c2nc3cnccn3c2Nc2ccc(C(=O)N3CCCCC3)cc2)cc1` | no | no | - |
| 61 | `CN(CC(=O)NCCc1ccc(Cl)cc1)S(=O)(=O)c1cc(Br)cnc1N` | no | no | - |
| 62 | `CN(C)S(=O)(=O)N1C[C@@H]2CC[C@H](C1)N(Cc1cccnc1N)C2` | no | no | no |
| 63 | `CCC(Nc1cccc(OC)c1)C(=O)NCCc1nnc(N)s1` (stereo not shown) | no | no | no |
| 64 | `Cc1ccc(OCC(O)CN2CCCCC2C)cc1C` (stereo not shown) | no | no | no |
| 65 | `O=C1SC(c2ccccc2)=CC1=CNc1ccccc1Cl` | no | no | no |
| 66 | `O=C1CC2(CCN(Cc3cc4n(n3)CCNC4)C2)Oc2ccccc21` (stereo not shown) | no | no | no |
| 67 | `Cc1ccc(-c2noc(-c3cccnc3NCc3ccccc3)n2)cc1` | no | no | - |
| 68 | `O=C(N[C@H]1CN(CCCO)C[C@@H]1C1CC1)C1(c2ccccc2F)CC1` | no | no | no |
| 69 | `O=C(c1scc2c1OCCO2)N1Cc2ccccc2C(O)C1` (stereo not shown) | no | no | no |
| 70 | `CSc1nc(N)nc(SCC(=O)Nc2ccc(C)cc2)c1C#N` | no | no | no |
| 71 | `COC(=O)c1cc(SC#N)ccc1N` | no | no | no |
| 72 | `CC(C)c1cc(NCc2nc(N)nc(N(C)C)n2)n2nccc2n1` | no | no | no |

The first 9 entries again:

SMILES	TPP	PreQ1	SAM-II
Cc1nnc2sc(-c3ccc(N)cc3)nn12	no	no	no
O=C1CCCN1c1ccc(CNC2CCC3(CCNCC3)CC2)cc1	no	no	no
CCCN1C(=O)C2(c3ccccc31)c1c(oc3ccc(C)cc3c1=O)C(=O)N2CCO (stereo not shown)	no	no	-
Cc1nn(-c2ccc(C(=O)O)cc2)c(N)c1-c1ccccc1	no	no	no
Cc1cccc(C(C(=O)N2C[C@H]3CC[C@@H](C2)N3)N(C)C)c1 (stereo partly shown)	no	no	no
Cc1cc(Nc2cccc(O)c2)c2cccc(Cl)c2n1	no	no	no
Cc1cc2ccccc2n1CCC(=O)N1CCC2(CC1)OCCCC2O (stereo not shown)	no	no	no
CCOc1ccc([C@@H]2C[C@H](c3ccc(CC)cc3)n3nc(N)nc3N2)cc1	no	no	no
CCc1nc(N)nc(N)c1-c1ccc(N(C)Cc2ccccc2)c([N+](=O)[O-])c1	no	no	no